Experimental data taken from publication PMC10079235 (PLOS Neglected Tropical Diseases, 2023).
Where a name gives a salt, the structure may show the parent alone. Read-outs that look alike come from different tables or passages of the source.

Experiments:
HCT-8/MDR1(PTX) cells = conditions: for Hill slope (h): cytotoxicity curve, MDR1(PTX) cells
Procedure: (§1) Host cell drug tolerance to specified inhibitors was evaluated by 3-(4,5-dimethylthiazol-2-yl)-5-(3-carboxymethoxyphenyl)-2-(4-sulfophenyl)-2H-tetrazolium (MTS) assay. WT and transgenic host cells were seeded in 96-well plates (10,000 cells/well) and cultured for 24 h, followed by the addition of specified compounds at serially diluted concentrations and continued culture for 41 h. After 3 washes with serum-free medium, MTS solution (Saint-Bio, Shanghai, China) was added into the plates (20 μL/well) and incubated at 37°C for 2 h. Optical density at 490 nm (OD490) was measured using a Synergy LX multi-mode reader (BioTek, Winooski, VT). Drug tolerance was indicated by half-maximal cytotoxic concentrations (TC50 values) calculated by nonlinear regression using 4PL model. Selectivity index (SI) for each compound was determined by the ratio between TC50 and EC50 values (SI = TC50/EC50).
(§2) Surviving cells were allowed to recover in drug-free medium for 3–5 d to near confluence (round 1). The selection/recovery cycle were repeated once (round 2). […] The resulting cell lines after PTX or NTZ selection were designated as WT(PTX), NC(PTX) and MDR1(PTX), or WT(NTZ), NC(NTZ) and MDR1(NTZ), respectively (Tables 1 and S2).

HCT-8/MDR1(NTZ) cells = experiment: MTS cytotoxicity (drug tolerance) assay; conditions: for Hill slope (h): cytotoxicity curve, MDR1(NTZ) cells
Procedure: as §1, §2

HCT-8/MDR1 cells = experiment: MTS cytotoxicity (drug tolerance) assay; conditions: for Hill slope (h): cytotoxicity curve, MDR1 cells
HCT-8/WT cells = experiment: MTS cytotoxicity (drug tolerance) assay; conditions: cytotoxicity curve
Procedure: as §1

HCT-8/WT(PTX) cells = experiment: MTS cytotoxicity (drug tolerance) assay; conditions: cytotoxicity curve
Procedure: as §1, §2

HCT-8/NC(PTX) cells = experiment: MTS cytotoxicity (drug tolerance) assay; conditions: cytotoxicity curve
Procedure: as §1, §2

HCT-8/NC cells = experiment: MTS cytotoxicity (drug tolerance) assay; conditions: cytotoxicity curve
HCT-8/NC(NTZ) cells = experiment: MTS cytotoxicity (drug tolerance) assay; conditions: cytotoxicity curve
Procedure: as §1
(§3) Surviving cells were allowed to recover in drug-free medium for 3–5 d to near confluence (round 1). The selection/recovery cycle were repeated once (round 2). […] Finally, all cells were cultured at the final selection concentrations of PTX or NTZ for ≥7 d, followed by culture in drug-free medium for 14 d. At this time point, cells were used for cytotoxicity and efficacy assays or cryopreserved in a liquid nitrogen tank. The resulting cell lines after PTX or NTZ selection were designated as WT(PTX), NC(PTX) and MDR1(PTX), or WT(NTZ), NC(NTZ) and MDR1(NTZ), respectively (Tables 1 and S2).

Cryptosporidium parvum = experiment: Anti-cryptosporidial efficacy assay (44-h infection/qRT-PCR); conditions: for Hill slope (h): efficacy curve
HCT-8/WT(NTZ) cells = experiment: MTS cytotoxicity (drug tolerance) assay; conditions: cytotoxicity curve
Procedure: as §1, §3

Row | Compound | Increased tolerance in MDR1(PTX) cells? (HCT-8/MDR1(PTX) cells) | Increased tolerance in MDR1(NTZ) cells? (HCT-8/MDR1(NTZ) cells) | Increased tolerance in MDR1 cells (vs. NC)? (HCT-8/MDR1 cells) | Hill slope (h) (HCT-8/MDR1(PTX) cells) | Hill slope (h) (HCT-8/WT cells) | Hill slope (h) (HCT-8/MDR1(NTZ) cells) | Hill slope (h) (HCT-8/WT(PTX) cells) | Hill slope (h) (HCT-8/NC(PTX) cells) | Hill slope (h) (HCT-8/NC cells) | Hill slope (h) (HCT-8/NC(NTZ) cells) | Hill slope (h) (HCT-8/MDR1 cells) | other results
1 | COc1cccc2c1C(=O)c1c(O)c3c(c(O)c1C2=O)C[C@@](O)(C(C)=O)C[C@@H]3O[C@H]1C[C@H](N)[C@H](O)[C@H](C)O1 [Daunorubicin, Daunorubicin HCl] | Yes | No | No |  |  |  |  |  |  |  |  | Ratio of TC50 MDR1(NTZ)/NC(NTZ) (HCT-8/MDR1(NTZ) cells): 1.02
2 | COc1cccc2c1C(=O)c1c(O)c3c(c(O)c1C2=O)C[C@@](O)(C(=O)CO)C[C@@H]3O[C@H]1C[C@H](N)[C@H](O)[C@H](C)O1 [Doxorubicin, Doxorubicin HCl] | Yes | No | Yes | 1.16 | 1.11 | 1.03 | 1.14 | 1.18 | 1.10 | 1.09 |  | 
3 | CN(C)C(=O)C(CCN1CCC(O)(c2ccc(Cl)cc2)CC1)(c1ccccc1)c1ccccc1 [Loperamide, Loperamide HCl] | No | No | No |  |  |  |  |  |  |  |  | 
4 | O=C1c2c(O)ccc(O)c2C(=O)c2c(NCCNCCO)ccc(NCCNCCO)c21 [Mitoxantrone, Mitoxantrone 2HCl] | Yes | No | Yes | 1.02 | 1.04 | 1.02 | 1.01 | 1.01 | 1.05 | 1.01 | 1.10 | Ratio of SI MDR1(PTX) vs NC (Cryptosporidium parvum): 1.34; Ratio of EC50 MDR1(PTX) vs NC (Cryptosporidium parvum; host cells MDR1(PTX) vs NC): 2.04; Ratio of TC50 MDR1(NTZ)/NC(NTZ) (HCT-8/MDR1(NTZ) cells): 1.61
5 | CC(=O)Oc1ccccc1C(=O)Nc1ncc([N+](=O)[O-])s1 [Nitazoxanide] | No | Yes | No | 1.03 | 1.12 |  | 1.05 | 1.06 | 1.07 | 1.02 | 1.11 | Pct change of EC50 (vs NC) (Cryptosporidium parvum; MDR1(NTZ) vs NC host cells): -3.6%; Hill slope (h) (Cryptosporidium parvum; MDR1(NTZ) host cells): 1.12; Increased tolerance in MDR1 cells (vs. NC)? (HCT-8/MDR1 cells; listed as NTZ): no change of tolerance
6 | CC(=O)O[C@H]1C(=O)[C@@]2(C)[C@H]([C@H](OC(=O)c3ccccc3)[C@]3(O)C[C@H](OC(=O)[C@H](O)[C@@H](NC(=O)c4ccccc4)c4ccccc4)C(C)=C1C3(C)C)[C@]1(OC(C)=O)CO[C@@H]1C[C@@H]2O [Paclitaxel] | Yes | No | Yes | 1.07 | 1.02 | 1.06 | 1.10 | 1.09 | 1.05 |  | 1.09 | 
7 | CC[C@]1(O)C[C@H]2CN(CCc3c([nH]c4ccccc34)[C@@](C(=O)OC)(c3cc4c(cc3OC)N(C=O)[C@H]3[C@@](O)(C(=O)OC)[C@H](OC(C)=O)[C@]5(CC)C=CCN6CC[C@]43[C@@H]65)C2)C1 [Vincristine, Vincristine sulphate] | Yes | No | Yes | 1.10 | 1.05 | 1.04 |  |  | 1.07 | 1.09 | 1.24 | 
8 | Ivermectin |  |  |  |  |  |  |  |  |  |  |  | Pct change of EC50 (vs NC) (Cryptosporidium parvum; MDR1(PTX) vs NC host cells): 31.6%; Hill slope (h) (Cryptosporidium parvum; MDR1(PTX) host cells): 1.06; Hill slope (h) (Cryptosporidium parvum; NC host cells): 1.09; Hill slope (h), mean values (Cryptosporidium parvum; mean of h of efficacy and cytotoxicity assays (S6 Table), h used in Fig 11B): 1.120; Hill slope (h) (HCT-8/WT(NTZ) cells): 1.02
